Data published in PubChem BioAssay AID504847 (National Center for Advancing Translational Sciences (NCATS), 2011).
Screen size: about 400,000 compounds; about 3,700 (0.93%) were called active. Inconclusive means that the source gave no clear call. Such entries were picked first, then a sample of the others. The call rests on the fitted dose curve; in most records, active means well fitted inhibition curve with a large enough effect; inconclusive means small, poorly fitted or top-dose-only effect, or another doubt; inactive means no such curve, though single readings can be large or run the other way. Potencies beside an inconclusive call are fits to weak or partial responses and may not hold up.

The chains behind the UniProt entries cited, without tags or fusion partners. Where a name states a change or a piece, a line headed by the entry shows the natural chain unless it says otherwise.
UniProt P11473: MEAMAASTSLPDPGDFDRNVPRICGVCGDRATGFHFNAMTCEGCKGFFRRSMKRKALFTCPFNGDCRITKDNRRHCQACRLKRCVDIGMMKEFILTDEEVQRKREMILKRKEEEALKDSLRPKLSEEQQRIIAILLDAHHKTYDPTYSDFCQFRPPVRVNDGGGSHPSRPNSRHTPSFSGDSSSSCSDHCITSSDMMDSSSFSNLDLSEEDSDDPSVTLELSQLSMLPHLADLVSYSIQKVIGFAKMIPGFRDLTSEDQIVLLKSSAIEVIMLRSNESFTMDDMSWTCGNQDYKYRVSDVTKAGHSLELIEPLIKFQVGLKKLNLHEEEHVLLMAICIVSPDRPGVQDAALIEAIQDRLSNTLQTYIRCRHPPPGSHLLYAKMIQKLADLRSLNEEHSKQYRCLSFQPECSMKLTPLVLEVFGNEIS

target: Vitamin D3 receptor (Homo sapiens) (UniProt P11473); test: Inhibitors of the vitamin D receptor (VDR): qHTS; conditions: VDR-SRC2-3 peptide fluorescence polarization, 2 h; max response, negative = inhibition: hits give low values
Method in brief: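 Fluorescence polarization assay measuring small-molecule disruption of VDR binding to the coregulator peptide SRC2-3. Compounds were pin-transferred (23 nl) into the reagent mix and incubated 2 h at room temperature before reading.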
On the % scale 0 is the no-effect control and ±100 the full control effect; potency means the concentration at half of the fitted maximal effect.

Potency, inconclusive:
O=C(O)CCc1ccc(-c2ccc(Cl)cc2)n1-c1cccc(C(F)(F)F)c1 56.2 µM [inhibitor, partial curve, poor fit]
Nc1cc(N)c(OCC(F)(F)F)cc1OCC(F)(F)F 44.7 µM [inhibitor, partial curve]
COc1ccc(-c2oc3ccc(N4CCOCC4)cc3c2C#CC2(O)CCCCC2)cc1 89.1 µM [inhibitor, partial curve, poor fit]
Cc1cc(C)c(S(=O)(=O)N2CCN(C(=O)N3CCOCC3)CC2)c(C)c1 89.1 µM [inhibitor, single point]
Cc1ccc(Nc2nnc(SCC(=O)c3cc4ccccc4o3)s2)cc1C 100 µM [inhibitor, single point]
COc1ccccc1-n1c2c(cc(C(=O)N3CCC(C)CC3)c1=O)C(=O)CC(C)(C)C2 1.58 µM [inhibitor, full curve, poor fit]
COc1ccc(N(C)C(=O)c2cc3c(s2)-c2ccccc2OC3)c(OC)c1 89.1 µM [inhibitor, single point]
COc1ccc(CCCc2nnc(SCC(=O)Nc3ccc(Cl)cc3)o2)cc1 79.4 µM [inhibitor, partial curve]
Cc1ccc(CNC(=O)C(=O)NCCCn2ccnc2)cc1 89.1 µM [inhibitor, single point]
CCN(C(=O)COC(=O)/C(=C/c1ccccc1)n1nnnc1C)C1CCCCC1 79.4 µM [inhibitor, partial curve]
COc1cc(C(=O)Nc2ccccc2SCc2cc(=O)n3nc(C)sc3n2)cc(OC)c1OC 44.7 µM [inhibitor, partial curve, poor fit]
CC(C)CC1=NN(C(=O)c2ccncc2)C(O)(C(F)(F)F)C1 (stereo not drawn) 79.4 µM [inhibitor, partial curve]

Potency, active:
S=C(NNC(=S)Nc1ccccc1)Nc1ccccc1 70.8 µM
COC(=O)c1c(-c2ccc(C(C)(C)C)cc2)csc1NC(=O)C1C2CCC(O2)C1C(=O)O (stereo not drawn) 44.7 µM
O=[N+]([O-])c1cnc(Sc2ccncn2)s1 22.4 µM

Max response, negative = inhibition, inactive:
Cc1cc(C)cc(C(=O)Nn2cnnc2)c1 -0.256%
O=C(OCc1nnc(-c2ccccc2)o1)C1CC(=O)N(Cc2ccco2)C1 (stereo not drawn) -19%
O=C(CN1CCc2cc3c(cc2C1)OCCCO3)Nc1cccc(Br)c1 -14.5%
